Literature values as cited in patent US20230331655A1, “HYDROXYN[…] AND METHODS OF USE THEREOF” (UNIVERSITY OF MARYLAND, BALTIMORE, priority 2020, published 2023).
Some results were stated once for a whole list of compounds, not compound by compound.

Molecular target: NMDARs
Settings: read-out: Ki (binding / inhibition of NMDARs); cited from earlier work

Row | Compound | Ki
1 | N[C@@]1(c2ccccc2Cl)CCC[C@H](O)C1=O [(2R,6S)-HNK] | > 100 µM
2 | N[C@]1(c2ccccc2Cl)CCC[C@@H](O)C1=O [(2S,6R)-HNK] | > 100 µM
